Measured values from the supplement of paper PMC6078165.

System: MDAMB468
Assay: relative JC-1 red fluorescence (viability) vs pre-drug, coculture with fibroblast (fraction); higher = more viable cancer cells
Experimental: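 JC-1 labelled TNBC cells cocultured 1:1 (1,500 cells each) with CellTrace Violet stained primary or stromal fibroblasts in 384-well plates in FluoroBrite medium, treated with one of 42 anticancer drugs at 0.1, 1, 10 or 100 uM. JC-1 red fluorescence (mitochondrial integrity in cancer cells only) was read by plate reader every 8 h for 72 h. Values are normalised to each well's pre-drug value. The stock of one drug was tenfold lower, so its dose labels may be too high.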

O=NN(CCCl)C(=O)NC1CCCCC1 [Lomustine]
relative JC-1 red fluorescence
Details | 8 h | 16 h | 24 h | 32 h | 40 h | 48 h | 56 h | 64 h | 72 h
0.1 µM, coculture fibroblast: C12385 | 0.84 | 0.789 | 0.749 | 0.688 | 0.653 | 0.648 | 0.621 | 0.609 | 0.603
0.1 µM, coculture fibroblast: H6013 | 0.865 | 0.852 | 0.8 | 0.773 | 0.749 | 0.761 | 0.739 | 0.732 | 0.683
0.1 µM, coculture fibroblast: H6019 | 0.854 | 0.843 | 0.831 | 0.794 | 0.756 | 0.755 | 0.698 | 0.679 | 0.66
0.1 µM, coculture fibroblast: H6076 | 0.918 | 0.957 | 0.903 | 0.881 | 0.82 | 0.81 | 0.776 | 0.756 | 0.783
0.1 µM, coculture fibroblast: H6231 | 0.794 | 0.9262 | 0.848 | 0.818 | 0.769 | 0.735 | 0.685 | 0.662 | 0.652
0.1 µM, coculture fibroblast: HADF | 0.8721 | 0.856 | 0.785 | 0.77 | 0.724 | 0.724 | 0.682 | 0.677 | 0.642
0.1 µM, coculture fibroblast: HCFa | 0.873 | 0.8534 | 0.8 | 0.7634 | 0.7072 | 0.704 | 0.657 | 0.624 | 0.578
0.1 µM, coculture fibroblast: HCPF | 0.844 | 0.861 | 0.92 | 0.888 | 0.839 | 0.813 | 0.7525 | 0.73694 | 0.71
0.1 µM, coculture fibroblast: HHSteC | 0.891 | 0.876 | 0.838 | 0.799 | 0.774 | 0.779 | 0.73 | 0.714 | 0.668
0.1 µM, coculture fibroblast: HMF | 0.8209 | 0.958 | 0.91 | 0.881 | 0.833 | 0.819 | 0.768 | 0.755 | 0.741
0.1 µM, coculture fibroblast: HPFa | 0.942 | 0.896 | 0.8691 | 0.8168 | 0.8027 | 0.797 | 0.729 | 0.703 | 0.617
0.1 µM, coculture fibroblast: HUF | 0.863 | 0.7773 | 0.724 | 0.6533 | 0.611 | 0.596 | 0.559 | 0.543 | 0.528
0.1 µM, coculture fibroblast: Hs5 | 0.9922 | 0.967 | 0.923 | 0.89 | 0.813 | 0.771 | 0.729 | 0.693 | 0.703
0.1 µM, coculture fibroblast: Hs27A | 0.852 | 0.862 | 0.776 | 0.763 | 0.715 | 0.71 | 0.67 | 0.653 | 0.62
0.1 µM, coculture fibroblast: Hs343T | 0.865 | 0.913 | 0.89 | 0.87 | 0.8 | 0.787 | 0.75 | 0.739 | 0.73
0.1 µM, coculture fibroblast: WS1 | 0.851 | 0.7803 | 0.725 | 0.659 | 0.605 | 0.579 | 0.552 | 0.531 | 0.527
1 µM, coculture fibroblast: C12385 | 0.8914 | 0.824 | 0.754 | 0.691 | 0.649 | 0.629 | 0.593 | 0.565 | 0.562
1 µM, coculture fibroblast: H6013 | 0.878 | 0.814 | 0.788 | 0.78879 | 0.764 | 0.774 | 0.75 | 0.735 | 0.694
1 µM, coculture fibroblast: H6019 | 0.836 | 0.782 | 0.729 | 0.673 | 0.642 | 0.616 | 0.566 | 0.5302 | 0.5078
1 µM, coculture fibroblast: H6076 | 0.9207 | 0.9065 | 0.846 | 0.863 | 0.8021 | 0.789 | 0.758 | 0.735 | 0.779
1 µM, coculture fibroblast: H6231 | 0.818 | 0.921 | 0.8 | 0.789 | 0.722 | 0.696 | 0.634 | 0.615 | 0.608
1 µM, coculture fibroblast: HADF | 0.8758 | 0.785 | 0.7526 | 0.7283 | 0.662 | 0.649 | 0.603 | 0.582 | 0.547
1 µM, coculture fibroblast: HCFa | 0.851 | 0.798 | 0.74 | 0.706 | 0.627 | 0.61 | 0.559 | 0.523 | 0.482
1 µM, coculture fibroblast: HCPF | 0.8774 | 0.9206 | 0.8134 | 0.831 | 0.741 | 0.72 | 0.673 | 0.657 | 0.652
1 µM, coculture fibroblast: HHSteC | 0.8995 | 0.846 | 0.8231 | 0.7981 | 0.7518 | 0.756 | 0.6818 | 0.6573 | 0.61213
1 µM, coculture fibroblast: HMF | 0.856 | 0.948 | 0.852 | 0.828 | 0.757 | 0.731 | 0.6768 | 0.651 | 0.629
1 µM, coculture fibroblast: HPFa | 0.918 | 0.894 | 0.854 | 0.788 | 0.7428 | 0.7334 | 0.6752 | 0.6433 | 0.558
1 µM, coculture fibroblast: HUF | 0.9231 | 0.82564 | 0.776 | 0.707 | 0.6627 | 0.6366 | 0.5969 | 0.5815 | 0.565
1 µM, coculture fibroblast: Hs5 | 0.884 | 0.894 | 0.919 | 0.8854 | 0.808 | 0.758 | 0.709 | 0.661 | 0.667
1 µM, coculture fibroblast: Hs27A | 0.8431 | 0.767 | 0.731 | 0.728 | 0.657 | 0.65 | 0.608 | 0.581 | 0.54
1 µM, coculture fibroblast: Hs343T | 0.884 | 0.908 | 0.8398 | 0.8291 | 0.759 | 0.742 | 0.6897 | 0.6768 | 0.6696
1 µM, coculture fibroblast: WS1 | 0.89 | 0.797 | 0.7664 | 0.694 | 0.648 | 0.614 | 0.58036 | 0.5611 | 0.554
10 µM, coculture fibroblast: C12385 | 0.843 | 0.815 | 0.781 | 0.736 | 0.691 | 0.685 | 0.648 | 0.612 | 0.593
10 µM, coculture fibroblast: H6013 | 0.851 | 0.87 | 0.8394 | 0.844 | 0.841 | 0.861 | 0.841 | 0.842 | 0.789
10 µM, coculture fibroblast: H6019 | 0.852 | 0.806 | 0.761 | 0.714 | 0.677 | 0.67 | 0.627 | 0.607 | 0.59
10 µM, coculture fibroblast: H6076 | 0.899 | 0.92 | 0.891 | 0.896 | 0.823 | 0.822 | 0.803 | 0.802 | 0.849
10 µM, coculture fibroblast: H6231 | 0.7949 | 0.8921 | 0.822 | 0.827 | 0.763 | 0.738 | 0.683 | 0.657 | 0.651
10 µM, coculture fibroblast: HADF | 0.863 | 0.86 | 0.809 | 0.801 | 0.765 | 0.757 | 0.717 | 0.71 | 0.661
10 µM, coculture fibroblast: HCFa | 0.882 | 0.872 | 0.821 | 0.779 | 0.728 | 0.719 | 0.6727 | 0.6471 | 0.60636
10 µM, coculture fibroblast: HCPF | 0.838 | 0.927 | 0.865 | 0.88 | 0.804 | 0.7861 | 0.733 | 0.712 | 0.709
10 µM, coculture fibroblast: HHSteC | 0.889 | 0.873 | 0.846 | 0.818 | 0.798 | 0.797 | 0.743 | 0.735 | 0.68935
10 µM, coculture fibroblast: HMF | 0.8266 | 0.943 | 0.8879 | 0.873 | 0.808 | 0.791 | 0.729 | 0.718 | 0.689
10 µM, coculture fibroblast: HPFa | 0.92 | 0.914 | 0.878 | 0.8238 | 0.796 | 0.7926 | 0.73 | 0.703 | 0.618
10 µM, coculture fibroblast: HUF | 0.879 | 0.858 | 0.8335 | 0.771 | 0.744 | 0.732 | 0.697 | 0.689 | 0.682
10 µM, coculture fibroblast: Hs5 | 0.967 | 0.934 | 0.91 | 0.9064 | 0.844 | 0.823 | 0.805 | 0.7824 | 0.81
10 µM, coculture fibroblast: Hs27A | 0.851 | 0.855 | 0.794 | 0.778 | 0.722 | 0.724 | 0.68 | 0.651 | 0.61
10 µM, coculture fibroblast: Hs343T | 0.868 | 0.936 | 0.904 | 0.8994 | 0.8176 | 0.802 | 0.766 | 0.75 | 0.739
10 µM, coculture fibroblast: WS1 | 0.8483 | 0.8184 | 0.774 | 0.7272 | 0.692 | 0.672 | 0.643 | 0.6226 | 0.618
100 µM, coculture fibroblast: C12385 | 0.837 | 0.7883 | 0.746 | 0.701 | 0.6704 | 0.66749 | 0.621 | 0.592 | 0.572
100 µM, coculture fibroblast: H6013 | 0.843 | 0.733 | 0.668 | 0.646 | 0.656 | 0.669 | 0.646 | 0.645 | 0.588
100 µM, coculture fibroblast: H6019 | 0.816 | 0.728 | 0.68 | 0.632 | 0.613 | 0.615 | 0.587 | 0.571 | 0.56
100 µM, coculture fibroblast: H6076 | 0.878 | 0.727 | 0.6451 | 0.654 | 0.605 | 0.614 | 0.606 | 0.595 | 0.653
100 µM, coculture fibroblast: H6231 | 0.842 | 0.837 | 0.766 | 0.774 | 0.7212 | 0.707 | 0.658 | 0.634 | 0.624
100 µM, coculture fibroblast: HADF | 0.8951 | 0.8037 | 0.718 | 0.701 | 0.674 | 0.659 | 0.601 | 0.591 | 0.521
100 µM, coculture fibroblast: HCFa | 0.8492 | 0.7645 | 0.702 | 0.687 | 0.661 | 0.668 | 0.623 | 0.592 | 0.544
100 µM, coculture fibroblast: HCPF | 0.8693 | 0.8451 | 0.7648 | 0.7804 | 0.70962 | 0.691 | 0.649 | 0.623 | 0.606
100 µM, coculture fibroblast: HHSteC | 0.906 | 0.834 | 0.8013 | 0.7772 | 0.7541 | 0.7477 | 0.6908 | 0.6723 | 0.6265
100 µM, coculture fibroblast: HMF | 0.855 | 0.825 | 0.69 | 0.66 | 0.599 | 0.589 | 0.541 | 0.516 | 0.51
100 µM, coculture fibroblast: HPFa | 0.937 | 0.8225 | 0.787 | 0.742 | 0.739 | 0.732 | 0.6825 | 0.662 | 0.589
100 µM, coculture fibroblast: HUF | 0.894 | 0.746 | 0.681 | 0.622 | 0.586 | 0.57 | 0.525 | 0.509 | 0.494
100 µM, coculture fibroblast: Hs5 | 0.987 | 0.82 | 0.782 | 0.768 | 0.705 | 0.687 | 0.661 | 0.64 | 0.653
100 µM, coculture fibroblast: Hs27A | 0.863 | 0.8039 | 0.7349 | 0.752 | 0.711 | 0.708 | 0.679 | 0.662 | 0.614
100 µM, coculture fibroblast: Hs343T | 0.885 | 0.81 | 0.696 | 0.672 | 0.606 | 0.596 | 0.569 | 0.541 | 0.526
100 µM, coculture fibroblast: WS1 | 0.86 | 0.756 | 0.7 | 0.662 | 0.63 | 0.614 | 0.5862 | 0.557 | 0.5405

The reference is the same well before dosing, and untreated signal decays as well.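 Labels refer to human fibroblasts, largely primary: uterine (C12385, HUF), lung (H6013), bone (Hs27A), adrenal (HADF), skin (WS1), plus mammary HMF and breast cancer-associated Hs343T. Cancer lines are basal-like or mesenchymal-like triple-negative breast cancer. The paper counts as hits responses shifting over 3x the replicate standard deviation. The tissue of the other fibroblasts is not given here.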
